Laboratory results reported in PMC12512393.
No constants are given. Whether binding was seen depends on the method and setting. In cells and extracts the contact can be indirect. Some results given as binding are weak or reduced against the parent protein; the word gives no strength.

Protein sequences, listed by entry. Tags and fused reporters are not part of them. Residues count along the entry.
UniProt P16410, residues 36-223: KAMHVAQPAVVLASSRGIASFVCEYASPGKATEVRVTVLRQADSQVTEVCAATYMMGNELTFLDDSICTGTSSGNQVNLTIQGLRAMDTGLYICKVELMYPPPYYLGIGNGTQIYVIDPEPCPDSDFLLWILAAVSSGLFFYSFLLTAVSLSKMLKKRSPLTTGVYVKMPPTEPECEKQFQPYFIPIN
UniProt Q03135: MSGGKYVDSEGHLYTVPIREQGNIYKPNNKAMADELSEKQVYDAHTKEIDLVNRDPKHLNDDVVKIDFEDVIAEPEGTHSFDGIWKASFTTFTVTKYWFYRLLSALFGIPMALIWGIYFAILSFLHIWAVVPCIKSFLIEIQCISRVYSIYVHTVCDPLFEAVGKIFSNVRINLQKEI

Target: Cytotoxic T Lymphocyte Antigen 4 (human (endogenous in Tregs from patients and healthy donors)) (UniProt P16410)
Assay: co-IP; lysates of Tregs from RA patients and HCs precleared, incubated with anti-CTLA4 (sc-18829) and protein A/G PLUS-Agarose at 4 °C for 12 h; SDS-PAGE and blot with caveolin-1 antibody; also RA Tregs treated with vehicle or Genipin 25 μM (Fig. 5E) and HC Tregs transfected with control or mCherry-UCP2 (Fig. 5Q)

Substance: Caveolin-1 (from UniProt Q03135 1-178)
- binding: binds
